{
  "source": "PubChem BioAssay AID540276",
  "about": "(National Center for Advancing Translational Sciences (NCATS), 2011)",
  "note": "Out of some 300,000 compounds screened, about 5,400 (1.8%) were called active. This list was built around the results that the source calls inconclusive (neither active nor inactive); the mix of calls is not that of the screen. The call rests on the fitted dose curve; tested in HEK293 cells. Where the call is inconclusive, the potency comes from a doubtful curve fit. Potency means the concentration at half of the fitted maximal effect.",
  "data": [
    {"experiment": "qHTS for inhibitors of binding or entry into cells for Marburg Virus", "conditions": "Marburg virus pseudotyped entry inhibition, cell reporter; series mostly up to 37.8 µM", "values": [
      {"smiles": "CCc1noc(C)c1C(=O)N1CCN(c2cccc(C)c2C)CC1", "Potency": "inactive"},
      {"smiles": "Cc1c(C(=O)N2CCN(c3ccc([N+](=O)[O-])cc3)CC2)sc2ncn(CC(=O)N3CCOCC3)c(=O)c12", "Potency": "inconclusive: 35.5 µM [inhibitor, single point]"},
      {"smiles": "O=C(CSc1ccc2nnc(-c3ccccc3)n2n1)NCc1ccco1", "Potency": "inactive"},
      {"smiles": "CCCCNc1oc(-c2cccs2)nc1S(=O)(=O)c1ccccc1", "Potency": "inconclusive: 23.1 µM [inhibitor, single point]"},
      {"smiles": "Cc1ccc(CNC(=O)COC(=O)c2cc3c(s2)CCC(C)C3)cc1", "note": "(centres undefined)", "Potency": "inconclusive: 0.562 µM [activator, full curve, poor fit]"},
      {"smiles": "O=[N+]([O-])c1cccc(NC(=S)Nc2nc(-c3ccccc3Cl)cs2)c1", "Potency": "inconclusive: 17.8 µM [inhibitor, single point]"},
      {"smiles": "CCc1ccc(-n2c(N3CCN(c4cccc(Cl)c4)CC3)nc3ccccc3c2=O)cc1", "Potency": "inconclusive: 11.2 µM [inhibitor, partial curve]"},
      {"smiles": "CCN(CC)C(=O)Oc1ccc(Br)cc1C(=O)Nc1ccc(F)c(Cl)c1", "Potency": "inconclusive: 3.98 µM [activator, full curve, poor fit]"},
      {"smiles": "COc1cc(Cl)c(C)cc1NC(=O)COC(=O)c1cc(SC)ccc1Cl", "Potency": "inconclusive: 35.5 µM [activator, single point]"},
      {"smiles": "CC1CCN(c2oc(-c3ccc(COc4ccccc4)o3)nc2C#N)CC1", "Potency": "inconclusive: 1.12 µM [inhibitor, full curve, poor fit]"},
      {"smiles": "COc1cc(OC)cc(C(=O)N[C@H](C(=O)NC23CC4CC(CC(C4)C2)C3)C(C)C)c1", "Potency": "inactive"},
      {"smiles": "c1ccc(N=P(N2CCOCC2)(N2CCOCC2)N2CCOCC2)cc1", "Potency": "inactive"},
      {"smiles": "O=C(O)c1ccc(C=NN=C2c3ccccc3-c3ccccc32)cc1", "Potency": "inconclusive: 3.98 µM [activator, full curve, poor fit]"},
      {"smiles": "Cc1ccc(NC(=O)CCN2CCC(Cc3ccccc3)CC2)cc1", "Potency": "inconclusive: 3.98 µM [inhibitor, partial curve, poor fit]"},
      {"smiles": "CCO/C=C/C(=O)N(C)CCC#N", "Potency": "inconclusive: 2.82 µM [activator, partial curve]"},
      {"smiles": "COc1ccc2cc(C(=O)C3CCCN(C(=O)CCc4cnn(C)c4)C3)ccc2c1", "note": "(centres undefined)", "Potency": "inconclusive: 12.6 µM [inhibitor, single point]"},
      {"smiles": "COc1ccc(CNC(=O)c2sc3nc4c(c(C(F)(F)F)c3c2N)CCC4)cc1OC", "Potency": "inconclusive: 10 µM [inhibitor, partial curve, poor fit]"},
      {"smiles": "COC(=O)c1sc(NC(=O)COc2cccc3ccccc23)nc1C", "Potency": "inconclusive: 29.1 µM [inhibitor, single point]"},
      {"smiles": "COc1ccc(Cl)cc1NC(=O)C/C(C)=N/NC(=O)C(=O)NCc1ccccc1", "Potency": "inactive"},
      {"smiles": "Cc1ccccc1NC(=O)C1CCN(C(=O)c2cnn(-c3ccccc3)c2-n2cccc2)CC1", "Potency": "inconclusive: 0.631 µM [inhibitor, full curve, poor fit]"},
      {"smiles": "COc1ccccc1CC1S/C(=N/N=C/c2ccco2)NC1=O", "note": "(centres undefined)", "Potency": "inconclusive: 1.58 µM [inhibitor, full curve, poor fit]"},
      {"smiles": "Cc1ccc(Cn2ccc(-c3cnc(-c4ccccc4)s3)n2)cc1", "Potency": "inactive"},
      {"smiles": "CS(=O)(=O)NCCNc1ncc(C(F)(F)F)cc1Cl", "Potency": "inactive"},
      {"smiles": "Cc1nn(C)c(Cl)c1/C=N/OC(=O)c1ccccc1", "Potency": "inconclusive: 31.6 µM [activator, single point]"},
      {"smiles": "COc1ccc(C2=CSC(/N=C/c3ccc(F)cc3)=NN2)cc1", "Potency": "inconclusive: 3.66 µM [inhibitor, partial curve, poor fit]"},
      {"smiles": "Cc1noc(C)c1CCC(=O)N1CCCC(CCC(=O)NCc2ccccc2F)C1", "note": "(centres undefined)", "Potency": "inactive"},
      {"smiles": "CCc1nc(SCC(=O)O)c(C#N)cc1C", "Potency": "inactive"},
      {"smiles": "CCOc1ccc(NC(=O)CN(C)C(=O)c2sccc2-c2ccccc2)cc1OCC", "Potency": "inconclusive: 35.5 µM [inhibitor, single point]"},
      {"smiles": "COCCn1c(N)c(N(Cc2ccccc2)C(=O)C2CCCC2)c(=O)[nH]c1=O", "Potency": "inconclusive: 0.891 µM [inhibitor, single point]"},
      {"smiles": "CC(=NC1CC1)C1=C(O)c2ccccc2C1=O", "Potency": "inconclusive: 3.26 µM [activator, single point]"},
      {"smiles": "O=[N+]([O-])c1cccc(C(=Nc2ccccc2)NO)c1", "Potency": "inconclusive: 35.5 µM [activator, single point]"},
      {"smiles": "CC(=O)c1ccc(N=C2C(=O)Nc3ccccc32)cc1", "Potency": "inactive"},
      {"smiles": "CN(C)c1ccc(C(=O)OCC(=O)N2CCCCCC2)cc1", "Potency": "inconclusive: 25.1 µM [activator, single point]"},
      {"smiles": "Cc1cc(Cc2ccc([N+](=O)[O-])cc2)c(C)cn1", "Potency": "inconclusive: 8.91 µM [inhibitor, partial curve, poor fit]"},
      {"smiles": "C=CCNc1cc(C)oc(=O)c1C(=O)CCC", "Potency": "inconclusive: 0.73 µM [inhibitor, partial curve, poor fit]"},
      {"smiles": "CCOC(=O)c1sc2c(c1C)c(=O)n(Cc1ccccc1)c(=O)n2CCN(C)C", "Potency": "inconclusive: 20 µM [inhibitor, single point]"},
      {"smiles": "CCOC(=O)Cc1csc(NC(=O)c2ccc(S(=O)(=O)N3CCCC3)cc2)n1", "Potency": "inconclusive: 0.291 µM [inhibitor, full curve, poor fit]"},
      {"smiles": "CC(CC(C)(C)N1CC1)=NNC(=O)Nc1cccc2ccccc12", "Potency": "inconclusive: 35.5 µM [inhibitor, single point]"},
      {"smiles": "COc1cc(/C=C/C(=O)OCC(=O)c2c[nH]c3ccccc23)ccc1OC(F)F", "Potency": "inactive"},
      {"smiles": "Cc1cc(C)c(Cn2c3ccccc3c3cnn(CC(=O)NCc4ccccn4)c(=O)c32)c(C)c1", "Potency": "inconclusive: 15.8 µM [inhibitor, single point]"},
      {"smiles": "Cc1csc2ncnc(NNC(=O)c3ccc(Cl)cc3)c12", "Potency": "inconclusive: 22.4 µM [inhibitor, single point]"},
      {"smiles": "CSCCC1NC(=O)N(CC(=O)Nc2ccc(Cl)c(S(=O)(=O)N3CCOCC3)c2)C1=O", "note": "(centres undefined)", "Potency": "inconclusive: 2.82 µM [activator, partial curve, poor fit]"},
      {"smiles": "Cc1nc(-c2ccc(S(=O)(=O)N3CCCCCC3)cc2)cs1", "Potency": "inactive"},
      {"smiles": "CCC(=O)N1CCN(c2ccnc3cc(Cl)ccc23)CC1", "Potency": "inactive"},
      {"smiles": "O=C(Nc1cnccn1)Nc1ccccc1Cl", "Potency": "inactive"},
      {"smiles": "COc1ccc(Cc2[nH]n3c(=O)cc(C(C)C)nc3c2-c2ccccc2)cc1", "Potency": "active: 12.6 µM"},
      {"smiles": "O=C(Nc1ccnn1C1CCN(C/C=C/c2ccccc2)CC1)c1ccccc1Cl", "Potency": "inconclusive: 22.4 µM [inhibitor, partial curve, poor fit]"},
      {"smiles": "Cc1ccc(/C=C/C(=O)Nc2ccc(S(N)(=O)=O)cc2)o1", "Potency": "inactive"},
      {"smiles": "N#CC(CCc1ccc([N+](=O)[O-])cc1)(CCc1ccc([N+](=O)[O-])cc1)C(N)=O", "Potency": "inconclusive: 1.58 µM [inhibitor, single point]"},
      {"smiles": "CCOc1ccc(NC(=O)CN(Cc2ccccc2)S(C)(=O)=O)cc1", "Potency": "inconclusive: 6.31 µM [activator, single point]"},
      {"smiles": "O=C(/C=C/c1ccc(Cl)cc1)NCCSc1ccccc1", "Potency": "inconclusive: 35.5 µM [activator, single point]"},
      {"smiles": "COc1cc(-c2cc3nc4ccccc4n3c(N)c2C#N)cc(OC)c1OC", "Potency": "inconclusive: 0.794 µM [inhibitor, full curve, poor fit]"},
      {"smiles": "COCCNC(=O)c1nc2c(nnn2Cc2cc(C)ccc2C)c(=O)[nH]1", "Potency": "inconclusive: 13 µM [activator, partial curve]"},
      {"smiles": "O=C(COC(=O)c1ccc2c(c1)C(=O)N(CCc1ccccc1)C2=O)Nc1ccc(OC(F)F)cc1", "Potency": "inactive"},
      {"smiles": "Cc1ccc2nc(-c3c[nH]c4ccccc34)c(Nc3ccccc3C)n2c1", "Potency": "inconclusive: 12.6 µM [activator, partial curve]"},
      {"smiles": "Cc1cc(-c2nnc(-c3cccc(Cl)c3)o2)no1", "Potency": "inconclusive: 3.55 µM [activator, single point]"},
      {"smiles": "CCc1nnc(NC(=O)CSc2nnnn2C)s1", "Potency": "inactive"},
      {"smiles": "COc1cccc(NC(=O)Cn2c(=O)n(CC(=O)NCc3ccc(C)cc3)c(=O)c3sccc32)c1", "Potency": "inactive"},
      {"smiles": "COC(=O)Cn1cc(C(=O)c2ccco2)c2ccccc21", "Potency": "inconclusive: 0.259 µM [activator, full curve, poor fit]"},
      {"smiles": "Nc1nnc(SCC(=O)Nc2ccccc2)s1", "Potency": "inactive"},
      {"smiles": "CCC(C(=O)OCC(=O)c1ccc2c(c1)NC(=O)CO2)c1ccccc1", "note": "(centres undefined)", "Potency": "inconclusive: 35.5 µM [inhibitor, partial curve, poor fit]"},
      {"smiles": "C/C(=N\\NC(=O)c1ccc(C)cc1C)c1ccc2c(c1)Nc1ccccc1S2", "Potency": "inactive"},
      {"smiles": "Cc1[nH]c2ccccc2c1CN1CCC(Cc2ccccc2)CC1", "Potency": "inconclusive: 22.4 µM [inhibitor, single point]"},
      {"smiles": "CN(C)c1nc(N)c(C(=O)N=C(N)N)nc1Cl", "Potency": "inconclusive: 1 µM [inhibitor, full curve, poor fit]"},
      {"smiles": "CCn1ccnc1CN1CCN(CC(C)C)C(CCO)C1", "note": "(centres undefined)", "Potency": "inactive"},
      {"smiles": "CCOc1ccc(CN2C(=O)c3ccccc3Sc3ccc(C(=O)NC)cc32)cc1", "Potency": "inconclusive: 0.794 µM [inhibitor, full curve, poor fit]"},
      {"smiles": "Cc1ccc(C)c(OCC(O)CN2CCCCC2C)c1", "note": "(centres undefined)", "Potency": "inconclusive: 11.2 µM [inhibitor, partial curve, poor fit]"},
      {"smiles": "CC1CCc2c(C(=O)NCc3ccccn3)csc2C1", "note": "(centres undefined)", "Potency": "inconclusive: 1.41 µM [activator, partial curve, poor fit]"},
      {"smiles": "CCC(O)(Cc1ccccn1)Cc1ccccn1", "Potency": "inconclusive: 1.12 µM [inhibitor, partial curve]"}
    ]}
  ]
}
